Data as given in PubChem BioAssay AID1159578 (Peter MacCallum Cancer Centre, 2015)
The whole screen tested about 18,000 reagents; shown is a part drawn at random. In the full data, about 1,030 (5.7%) are marked active. 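Inactive calls also include pools with fewer than 3300 nuclei, whose migration was not assessed.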 Raw values vary from plate to plate and are shown uncorrected. Further read-outs or replicates are left out here. No sequences are given here.

Test: 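siRNA pools altering how lymphatic endothelial cells close a scratch wound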 (primary screen)
Cell system: human lymphatic endothelial cells
Reagent: siRNA pool against human genes, 40 nM
Timing: 48 h after transfection
Detection: 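High-content imaging of dye-stained cells in a scratch assay measures filled wound area and nuclei per well; duplicate means given as ratio to mock and robust z-score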
Scale: migration robust z-score: higher = faster migration into the scratch; nuclei per well: higher = more cells in the well
Rule for the call: 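Pools averaging fewer than 3300 nuclei are never called; remaining pools count as changed when migration robust z lies outside -2 to 2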
Meaning of the calls: active = migration changed; inactive = no migration change, or too few cells

PTGER4: migration robust z-score = 0.88; nuclei per well, duplicate mean = 5138; call = inactive
RASGRF2: migration robust z-score = 1.31; nuclei per well, duplicate mean = 6162; call = inactive
NSL1: migration robust z-score = 0.95; nuclei per well, duplicate mean = 6438; call = inactive
TRIM6: migration robust z-score = 0.73; nuclei per well, duplicate mean = 6461; call = inactive
RELN: migration robust z-score = 0.26; nuclei per well, duplicate mean = 4877; call = inactive
SOCS4: migration robust z-score = 0.31; nuclei per well, duplicate mean = 5444; call = inactive
FIG4: migration robust z-score = 1.56; nuclei per well, duplicate mean = 5738; call = inactive
TAFA3: migration robust z-score = -1.62; nuclei per well, duplicate mean = 5772; call = inactive
SPATA6: migration robust z-score = -0.16; nuclei per well, duplicate mean = 6761; call = inactive
SPOCK3: migration robust z-score = 0.38; nuclei per well, duplicate mean = 6108; call = inactive
ATP10A: migration robust z-score = 0.6; nuclei per well, duplicate mean = 7012; call = inactive
H4C12: migration robust z-score = 0.47; nuclei per well, duplicate mean = 5634; call = inactive
TTC12: migration robust z-score = -0.46; nuclei per well, duplicate mean = 6524; call = inactive
ZMAT1: migration robust z-score = -1.34; nuclei per well, duplicate mean = 5579; call = inactive
